Earlier results in US8067243B2 (priority 2008, dated 2011).

Conditions: in vivo; cited from earlier work

**Q.** For `CN1CC[C@]23c4c5ccc(O)c4O[C@H]2[C@@H](O)C=C[C@H]3[C@H]1C5` [Morphine], which “Retention Time” value is on record?
**A.** 1 to 3 days
